# Source: PubChem BioAssay AID330 (DTP/NCI, 2004)
# The list shows only some results of the screen, not a fair sample: its compounds were picked by chemical class. Not every dose and run of a compound is shown. T/C gives the treated animals as a percentage of the vehicle group. Some doses have a count of surviving animals in place of a T/C: the source files T/C as zero there, which appears to mark a toxic dose or a test without result, not a measured value. Some survivor counts are full or nearly so, which does not show that the dose was tolerated: survival well below the control is almost never listed, so the zero probably covers shortened survival too. Survivors were counted at the toxicity check, usually on the fifth day, unless a day is given; later deaths do not show. Schedule codes are those of the source, taken here to give the interval after Q, in days (D) or hours (H), and the number of doses after X. Some complexes appear as separate parts, the way the source draws them; their charges need not add up. Where survival is the endpoint, this PubChem deposit counts one and a half times the control or more as active, and values a quarter to a half above the control carry no call in these data; other NCI protocols may use other cut-offs. Some entries hold several experiments; the values are given in rising order. Some entries show no survivor count and are marked so; the dose need not have been tolerated. Some T/C values carry the count of animals alive at the toxicity check (mostly the fifth day); without a count or a note in brackets, all were alive then. Additions like (4×) count equal records among those shown.
# Test system: P388 leukemia ip, CD2F1 mice, survival T/C
# Assay: NCI In Vivo Anticancer Drug Screen. Data for tumor model P388 Leukemia (intraperitoneal) in CD2F1 (CDF1) mice
# Conditions: T/C endpoint: median survival time, higher T/C = longer survival
# [1] = dose: 50.0 mg/kg/injection, schedule: Q04DX003 (ip), vehicle: saline
# [2] = dose: 100.0 mg/kg/injection, schedule: Q04DX003 (ip), vehicle: saline
# [3] = dose: 200.0 mg/kg/injection, schedule: Q04DX003 (ip), vehicle: saline
# [4] = dose: 100.0 mg/kg/injection, schedule: Q01DX001 (ip), vehicle: Klucel (hydroxypropylcellulose) (HPC)
# [5] = dose: 200.0 mg/kg/injection, schedule: Q01DX001 (ip), vehicle: Klucel (hydroxypropylcellulose) (HPC)
# [6] = dose: 25.0 mg/kg/injection, schedule: Q01DX005 (ip), vehicle: saline
# [7] = dose: 50.0 mg/kg/injection, schedule: Q01DX005 (ip), vehicle: saline
# [8] = dose: 100.0 mg/kg/injection, schedule: Q01DX005 (ip), vehicle: saline
# [9] = dose: 200.0 mg/kg/injection, schedule: Q01DX005 (ip), vehicle: saline
# [10] = dose: 50.0 mg/kg/injection, schedule: Q01DX005 (ip), vehicle: saline with Tween-80
# [11] = dose: 100.0 mg/kg/injection, schedule: Q01DX005 (ip), vehicle: saline with Tween-80
# [12] = dose: 200.0 mg/kg/injection, schedule: Q01DX005 (ip), vehicle: saline with Tween-80
# [13] = dose: 25.0 mg/kg/injection, schedule: Q01DX009 (ip), vehicle: Klucel (hydroxypropylcellulose) (HPC)
# [14] = dose: 50.0 mg/kg/injection, schedule: Q01DX009 (ip), vehicle: Klucel (hydroxypropylcellulose) (HPC)
# [15] = dose: 100.0 mg/kg/injection, schedule: Q01DX009 (ip), vehicle: Klucel (hydroxypropylcellulose) (HPC)
# [16] = dose: 50.0 mg/kg/injection, schedule: Q01DX009 (ip), vehicle: saline with Tween-80
# [17] = dose: 100.0 mg/kg/injection, schedule: Q01DX009 (ip), vehicle: saline with Tween-80
# [18] = dose: 200.0 mg/kg/injection, schedule: Q01DX009 (ip), vehicle: saline with Tween-80
# [19] = dose: 100.0 mg/kg/injection, schedule: Q01DX001 (ip), vehicle: saline
# [20] = dose: 200.0 mg/kg/injection, schedule: Q01DX001 (ip), vehicle: saline
# [21] = dose: 400.0 mg/kg/injection, schedule: Q01DX001 (ip), vehicle: saline
structure (smiles),measurement,setting,value
CN(CCCl)CC1OC(O)C(O)C(O)C1O (stereo not given),T/C,"dose: 25.0 mg/kg/injection, schedule: Q01DX009 (ip), vehicle: saline sonified",172 % of control
same,T/C,"dose: 33.0 mg/kg/injection, schedule: Q01DX009 (ip), vehicle: saline sonified",166 % of control
same,T/C,"dose: 50.0 mg/kg/injection, schedule: Q01DX009 (ip), vehicle: saline sonified",166 and 195 % of control
same,T/C,[1],129 % of control
same,T/C,"dose: 66.0 mg/kg/injection, schedule: Q04DX003 (ip), vehicle: saline sonified",125 % of control
same,survivor count,"dose: 75.0 mg/kg/injection, schedule: Q01DX009 (ip), vehicle: saline sonified",6 of 6
same,survivor count,"dose: 100.0 mg/kg/injection, schedule: Q01DX009 (ip), vehicle: saline sonified",1 of 6
same,T/C,"dose: 100.0 mg/kg/injection, schedule: Q04DX003 (ip), vehicle: saline sonified",104 % of control
same,T/C,[2],158 % of control
same,survivor count,"dose: 150.0 mg/kg/injection, schedule: Q04DX003 (ip), vehicle: saline sonified",5 of 6
same,survivor count,[3],5 of 6
CN([PH+](F)F)[PH+](F)F.CN([PH+](F)F)[PH+](F)F.CN([PH+](F)F)[PH+](F)F.[Cr],T/C,[4],101 % of control
same,T/C,[5],101 % of control
same,T/C,"dose: 400.0 mg/kg/injection, schedule: Q01DX001 (ip), vehicle: Klucel (hydroxypropylcellulose) (HPC)",103 % of control
NCCC(N)CSP(=O)(O)O (stereo not given),T/C,[6],100 % of control
same,T/C,[7],103 % of control
same,T/C,[8],110 % of control
same,T/C,[9],107 % of control
O=c1oc(NCCCl)nc2ccccc12,T/C,"dose: 25.0 mg/kg/injection, schedule: Q01DX005 (ip), vehicle: saline with Tween-80",107 % of control
same,T/C,[10],100 % of control
same,T/C,[11],101 % of control
same,T/C,[12],108 % of control
O=C1C=C(NCCCl)C(=O)C=C1NCCCl,T/C,[13],93 % of control
same,T/C,[14],97 and 109 % of control
same,T/C,[15],128 % of control
same,survivor count,[15],6 of 6
same,T/C,"dose: 200.0 mg/kg/injection, schedule: Q01DX009 (ip), vehicle: Klucel (hydroxypropylcellulose) (HPC)",98 % of control [5 of 6 alive]
O=C1CN(CCCl)CC(=O)N2Cc3ccccc3CN12,T/C,[10],99 % of control
same,T/C,[11],111 % of control
same,T/C,[12],111 % of control [4 of 5 alive]
CC(C)CO[P+](=O)OCC(C)C,T/C,[1],100 % of control
same,T/C,[2],100 % of control
same,T/C,[3],120 % of control
CC(C)(C)OP(OC(C)(C)C)OC(C)(C)C,T/C,"dose: 50.0 mg/kg/injection, schedule: Q01DX009 (ip), vehicle: other",104 % of control
same,T/C,"dose: 100.0 mg/kg/injection, schedule: Q01DX009 (ip), vehicle: other",101 % of control
same,T/C,"dose: 200.0 mg/kg/injection, schedule: Q01DX009 (ip), vehicle: other",90 % of control
C1CCC(NC2CCCCC2)CC1.CC(C)(Oc1ccc(N(CCCl)CCCl)cc1)C(=O)O,T/C,"dose: 33.0 mg/kg/injection, schedule: Q04DX003 (ip), vehicle: Klucel (hydroxypropylcellulose) (HPC)",122 % of control
same,T/C,"dose: 50.0 mg/kg/injection, schedule: Q04DX003 (ip), vehicle: Klucel (hydroxypropylcellulose) (HPC)",186 % of control
same,T/C,"dose: 75.0 mg/kg/injection, schedule: Q04DX003 (ip), vehicle: Klucel (hydroxypropylcellulose) (HPC)",195 % of control [5 of 6 alive]
O=[N+]([O-])OCC1(CO[N+](=O)[O-])COC1,T/C,[13],102 % of control [survivor count not shown]
same,T/C,[14],105 % of control [survivor count not shown]
same,T/C,[15],99 [survivor count not shown] and 109 % of control [survivor count not shown]
CC12CCC3(C)OCC(COC(=O)C(O)(c4ccccc4)C4CCCCC4)(CO1)N23 (stereo not given),T/C,[16],105 % of control
same,T/C,[17],100 % of control
same,T/C,[18],122 % of control
COP(OC)C1CCC(C)CC1 (stereo not given),T/C,[19],99 % of control
same,T/C,[20],119 % of control
same,T/C,[21],115 % of control
[O-][n+]1nccnc1N1CC1,T/C,[19],99 % of control
same,T/C,[20],98 % of control
same,T/C,[21],100 % of control
COP(C)(=O)O.[Cr],T/C,"dose: 50.0 mg/kg/injection, schedule: Q01DX001 (ip), vehicle: Klucel (hydroxypropylcellulose) (HPC)",105 % of control [survivor count not shown]
same,T/C,[4],100 % of control [survivor count not shown]
same,T/C,[5],88 % of control [survivor count not shown]
Nc1ccc(N(CCCl)CCCl)cc1,T/C,"dose: 0.05 mg/kg/injection, schedule: Q01DX009 (ip), vehicle: saline",116 % of control
same,T/C,"dose: 0.07 mg/kg/injection, schedule: Q01DX009 (ip), vehicle: saline",115 % of control
same,T/C,"dose: 0.11 mg/kg/injection, schedule: Q01DX009 (ip), vehicle: saline",113 % of control
same,T/C,"dose: 0.16 mg/kg/injection, schedule: Q01DX009 (ip), vehicle: saline",133 % of control
same,T/C,"dose: 1.5 micrograms/kg/injection, schedule: Q01DX009 (ip), vehicle: saline",102 % of control
same,T/C,"dose: 3.1 micrograms/kg/injection, schedule: Q01DX009 (ip), vehicle: saline",99 % of control
same,T/C,"dose: 6.2 micrograms/kg/injection, schedule: Q01DX009 (ip), vehicle: saline",95 % of control
same,T/C,"dose: 12.5 micrograms/kg/injection, schedule: Q01DX009 (ip), vehicle: saline",99 % of control
same,T/C,"dose: 25.0 micrograms/kg/injection, schedule: Q01DX009 (ip), vehicle: saline",99 % of control
same,T/C,"dose: 50.0 micrograms/kg/injection, schedule: Q01DX009 (ip), vehicle: saline",91 % of control
NCCCCC(N)CSP(=O)(O)O (stereo not given),T/C,[6],102 % of control
same,T/C,[7],"100, 107, 108 % of control"
same,T/C,[8],"105, 109, 115 % of control"
same,T/C,[9],"108, 115, 126 % of control"
same,survivor count,"dose: 400.0 mg/kg/injection, schedule: Q01DX005 (ip), vehicle: saline",0 of 6
C1CCC(CC[N-]CC[N-]CCC2CCCC[N-]2)[N-]C1.F[P-](F)(F)(F)(F)F.[Cu+2] (stereo not given),T/C,"dose: 6.25 mg/kg/injection, schedule: Q01DX009 (ip), vehicle: saline with Tween-80",100 % of control
same,T/C,"dose: 12.5 mg/kg/injection, schedule: Q01DX009 (ip), vehicle: saline with Tween-80",104 % of control (2×)
same,T/C,"dose: 25.0 mg/kg/injection, schedule: Q01DX009 (ip), vehicle: saline with Tween-80",100 and 103 % of control [5 of 6 alive]
same,survivor count,[16],1 of 6
same,survivor count,[17],0 of 6
same,survivor count,[18],0 of 6
CC(C)OP(C)(=O)O.[Ga],T/C,"dose: 25.0 mg/kg/injection, schedule: Q01DX001 (ip), vehicle: saline with Tween-80",105 % of control [survivor count not shown]
same,T/C,"dose: 50.0 mg/kg/injection, schedule: Q01DX001 (ip), vehicle: saline with Tween-80",103 % of control [survivor count not shown]
same,T/C,"dose: 100.0 mg/kg/injection, schedule: Q01DX001 (ip), vehicle: saline with Tween-80",109 % of control [survivor count not shown]
same,T/C,"dose: 200.0 mg/kg/injection, schedule: Q01DX001 (ip), vehicle: saline with Tween-80",100 % of control [survivor count not shown]
same,T/C,"dose: 400.0 mg/kg/injection, schedule: Q01DX001 (ip), vehicle: saline with Tween-80",95 % of control [survivor count not shown]
